{"source": "patent US10709724B2", "about": "“Methods of treating mitochondrial dysfunction” (Ecole Polytechnique Federale de Lausanne (EPFL), priority 2011, dated 2020)", "tested_on": "C57Bl/6J male mice", "assay": "PJ34 treatment of mice (5 days)", "type": "in vivo", "conditions": "10 mg/kg i.p. twice a day", "procedure": "Animal Experiments. Male PARP-1^+/+ and PARP-1^−/− mice on a pure C57Bl/6J background (Menissier-de Murcia et al., 1997) were used. Mice were housed separately, had ad libitum access to water and standard rodent chow (10 kcal % of fat, Safe, Augy, France) or to a high calorie, high fat diet (60 kcal % of fat, Research. Diets, New Brunswick, N.J., USA), and were kept under a 12 h dark-light cycle. In other animal experiments, 8 weeks-old male C57Bl/6J mice were purchased from Charles River and powder chow (D12450B) and high fat (D12492) diets were from Research Diets Inc (New Brunswick, N.J., USA). 80 ml of water per kg of powder CD were used to make food pellets. […] To monitor body weight, mice were weighed and the food consumption was measured each week on the same day. […] Oral glucose tolerance test, intraperitoneal insulin tolerance test, free fatty acid (FFA) and triglycerides were determined as described (Lagouge et al., 2006). Plasma insulin and was determined in heparinized plasma samples using specific ELISA kits (Mercodia). […] Plasma parameters were measured using a Cobas c111 (Roche Diagnostics). […] We measured O2 consumption, CO2 production, and spontaneous locomotor activity in an open circuit indirect calorimetry system (Sabre systems, Las Vegas, Nev., USA) over 24-48 has described (Dali-Youcef et al., 2007; Lagouge et al., 2006; Watanabe et al., 2006). […]", "data": [{"compound": "CN(C)CC(=O)Nc1ccc2[nH]c(=O)c3ccccc3c2c1", "note": "[PJ34]", "values": [{"measurement": "body weight", "value": "did not cause a difference"}, {"measurement": "food consumption", "value": "did not cause a difference"}]}]}
